Our source for the IC50 values is US10729684B2, “Alkynyl dihydroquinoline sulfonamide compounds” (AMGEN INC., priority 2015, dated 2020).

The chains behind the UniProt entries cited, without tags or fusion partners.
UniProt Q15858, whole entry: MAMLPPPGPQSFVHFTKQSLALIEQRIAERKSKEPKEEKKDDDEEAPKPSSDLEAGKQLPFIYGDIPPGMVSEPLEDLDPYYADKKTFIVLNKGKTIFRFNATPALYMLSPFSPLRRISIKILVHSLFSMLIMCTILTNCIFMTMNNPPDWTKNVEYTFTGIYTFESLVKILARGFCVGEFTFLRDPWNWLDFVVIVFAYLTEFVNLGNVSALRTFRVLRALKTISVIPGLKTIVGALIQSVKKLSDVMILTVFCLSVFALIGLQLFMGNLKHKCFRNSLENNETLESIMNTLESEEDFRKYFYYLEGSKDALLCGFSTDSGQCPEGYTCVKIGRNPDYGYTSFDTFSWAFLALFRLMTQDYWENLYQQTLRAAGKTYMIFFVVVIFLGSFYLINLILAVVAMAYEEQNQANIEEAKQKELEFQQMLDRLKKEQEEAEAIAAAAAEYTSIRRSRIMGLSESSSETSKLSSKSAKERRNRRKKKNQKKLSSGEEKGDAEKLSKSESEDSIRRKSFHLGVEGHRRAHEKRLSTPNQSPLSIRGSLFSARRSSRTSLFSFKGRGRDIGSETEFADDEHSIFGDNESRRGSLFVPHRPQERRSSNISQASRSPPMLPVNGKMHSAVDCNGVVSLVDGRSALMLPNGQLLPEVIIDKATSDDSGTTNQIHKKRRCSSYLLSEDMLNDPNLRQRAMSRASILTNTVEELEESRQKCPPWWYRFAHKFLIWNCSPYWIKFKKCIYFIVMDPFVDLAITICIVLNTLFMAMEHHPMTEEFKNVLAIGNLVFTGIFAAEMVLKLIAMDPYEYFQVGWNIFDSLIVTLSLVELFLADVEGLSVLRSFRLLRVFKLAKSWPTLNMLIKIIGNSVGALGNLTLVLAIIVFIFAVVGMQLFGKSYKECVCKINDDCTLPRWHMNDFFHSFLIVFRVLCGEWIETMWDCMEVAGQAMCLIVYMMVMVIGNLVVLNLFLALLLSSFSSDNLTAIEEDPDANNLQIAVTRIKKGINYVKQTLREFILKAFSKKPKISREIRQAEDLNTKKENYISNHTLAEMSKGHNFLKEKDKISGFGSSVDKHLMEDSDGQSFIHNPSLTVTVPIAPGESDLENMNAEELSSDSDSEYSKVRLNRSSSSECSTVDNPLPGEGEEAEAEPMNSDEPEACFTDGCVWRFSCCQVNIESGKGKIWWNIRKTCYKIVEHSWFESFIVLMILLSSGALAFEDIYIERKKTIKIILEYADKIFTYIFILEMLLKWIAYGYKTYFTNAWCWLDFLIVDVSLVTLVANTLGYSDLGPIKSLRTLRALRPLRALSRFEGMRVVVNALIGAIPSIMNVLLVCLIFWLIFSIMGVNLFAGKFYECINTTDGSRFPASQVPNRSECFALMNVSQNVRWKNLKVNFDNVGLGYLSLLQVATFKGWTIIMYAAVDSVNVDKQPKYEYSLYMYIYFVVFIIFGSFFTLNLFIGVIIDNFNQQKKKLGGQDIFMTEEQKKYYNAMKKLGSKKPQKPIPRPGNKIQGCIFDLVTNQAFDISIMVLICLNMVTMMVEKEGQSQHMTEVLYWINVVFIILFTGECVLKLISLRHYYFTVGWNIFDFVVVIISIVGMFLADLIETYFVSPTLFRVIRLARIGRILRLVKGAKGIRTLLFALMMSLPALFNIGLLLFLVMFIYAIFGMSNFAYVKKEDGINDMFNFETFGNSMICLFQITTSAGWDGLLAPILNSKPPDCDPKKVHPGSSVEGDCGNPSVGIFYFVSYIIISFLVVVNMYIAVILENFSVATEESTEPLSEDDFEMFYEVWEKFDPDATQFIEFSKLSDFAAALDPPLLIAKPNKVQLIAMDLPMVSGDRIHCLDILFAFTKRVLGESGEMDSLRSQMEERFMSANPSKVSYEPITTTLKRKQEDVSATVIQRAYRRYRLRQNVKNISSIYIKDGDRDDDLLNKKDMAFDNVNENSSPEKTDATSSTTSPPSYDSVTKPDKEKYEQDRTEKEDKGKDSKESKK

Structures were worked out from names or drawings and are uncertain.

Assay [1] has as its target hNav1.7 (Homo sapiens (Human), UniProt Q15858). The assay is described as follows: Nav 1.7 IWQ in vitro assay (IonWorks Quattro population patch-clamp). As to conditions: read-out: hNav1.7 IWQ IC50, HEK 293 cells stably transfected with Nav 1.7.
Assay [2] has as its target human Nav1.7 (Homo sapiens (Human), UniProt Q15858). The assay is described as follows: Nav 1.7 in vitro PX assay (PatchXpress whole cell voltage clamp). The format is cell-based. The note with it: read-out: hNav1.7 PX IC50, HEK 293 cells stably transfected with human Nav1.7, partially inactivated state.

In general, IC50 refers to the point on the concentration scale where inhibition reaches its midpoint. On to `COc1cc(C#CC2CCCC2)c(F)cc1-n1c(=O)ccc2cc(S(=O)(=O)Nc3cccnn3)ccc21` [Example 9], for which the IC50 turned out to be 9.73 nM in assay [1] and 33.8 nM in assay [2].
